Measured values taken from the supplement of paper PMC6078165.
The reference is the same well before dosing, and untreated signal decays as well.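 Labels refer to human fibroblasts, largely primary: uterine (C12385, HUF), lung (H6013), bone (Hs27A), adrenal (HADF), skin (WS1), plus mammary HMF and breast cancer-associated Hs343T. Cancer lines are basal-like or mesenchymal-like triple-negative breast cancer. The paper counts as hits responses shifting over 3x the replicate standard deviation. The tissue of the other fibroblasts is not given here.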

Test system: Hs578T
Experiment: relative JC-1 red fluorescence (viability) vs pre-drug, coculture with fibroblast (fraction); higher = more viable cancer cells
Method: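 JC-1 labelled TNBC cells cocultured 1:1 (1,500 cells each) with CellTrace Violet stained primary or stromal fibroblasts in 384-well plates in FluoroBrite medium, treated with one of 42 anticancer drugs at 0.1, 1, 10 or 100 uM. JC-1 red fluorescence (mitochondrial integrity in cancer cells only) was read by plate reader every 8 h for 72 h. Values are normalised to each well's pre-drug value. The stock of one drug was tenfold lower, so its dose labels may be too high.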

COc1cc([C@@H]2c3cc4c(cc3[C@@H](O[C@@H]3O[C@@H]5CO[C@@H](c6cccs6)O[C@H]5[C@H](O)[C@H]3O)[C@H]3COC(=O)[C@H]23)OCO4)cc(OC)c1O [Teniposide]
relative JC-1 red fluorescence
Settings	8 h	16 h	24 h	32 h	40 h	48 h	56 h	64 h	72 h
0.1 µM	0.89	0.807	0.763	0.729	0.671	0.633	0.6087	0.5717	0.5639
1 µM	0.877	0.794	0.739	0.698	0.63	0.592	0.592	0.558	0.554

relative JC-1 red fluorescence
Settings	8 h	16 h	24 h	32 h	40 h	48 h	56 h	64 h	72 h
0.1 µM, coculture fibroblast: C12385	0.778	0.72113	0.698	0.617	0.567	0.54	0.515	0.504	0.506
0.1 µM, coculture fibroblast: H6013	0.843	0.8075	0.765	0.739	0.702	0.682	0.659	0.652	0.626
0.1 µM, coculture fibroblast: H6019	0.792	0.759	0.801	0.711	0.706	0.702	0.684	0.681	0.659
0.1 µM, coculture fibroblast: H6076	0.88	0.812	0.801	0.7827	0.7399	0.742	0.743	0.75	0.757
0.1 µM, coculture fibroblast: H6231	0.88	0.786	0.737	0.701	0.638	0.613	0.57	0.553	0.558
0.1 µM, coculture fibroblast: HADF	0.8365	0.7884	0.7343	0.677	0.645	0.616	0.589	0.59	0.574
0.1 µM, coculture fibroblast: HCFa	0.8301	0.771	0.713	0.658	0.591	0.57	0.535	0.525	0.4978
0.1 µM, coculture fibroblast: HCPF	0.902	0.816	0.765	0.735	0.66	0.635	0.6001	0.56992	0.553
0.1 µM, coculture fibroblast: HHSteC	0.844	0.7695	0.717	0.667	0.607	0.574	0.551	0.537	0.517
0.1 µM, coculture fibroblast: HMF	0.826	0.746	0.702	0.694	0.64	0.618	0.592	0.579	0.581
0.1 µM, coculture fibroblast: HPFa	0.889	0.819	0.769	0.707	0.667	0.631	0.582	0.567	0.542
0.1 µM, coculture fibroblast: HUF	0.823	0.731	0.736	0.638	0.586	0.571	0.548	0.556	0.561
0.1 µM, coculture fibroblast: Hs27A	0.859	0.8122	0.763	0.725	0.663	0.644	0.613	0.609	0.573
0.1 µM, coculture fibroblast: Hs343T	0.8434	0.765	0.72779	0.719	0.656	0.643	0.629	0.626	0.653
0.1 µM, coculture fibroblast: WS1	0.7872	0.703	0.673	0.573	0.514	0.494	0.466	0.462	0.463
1 µM, coculture fibroblast: C12385	0.805	0.714	0.655	0.566	0.5	0.467	0.441	0.427	0.423
1 µM, coculture fibroblast: H6013	0.832	0.807	0.769	0.74	0.72	0.712	0.699	0.694	0.674
1 µM, coculture fibroblast: H6019	0.788	0.708	0.677	0.583	0.534	0.5007	0.469	0.44	0.415
1 µM, coculture fibroblast: H6076	0.872	0.8124	0.799	0.797	0.774	0.779	0.786	0.792	0.806
1 µM, coculture fibroblast: H6231	0.875	0.809	0.745	0.69	0.626	0.6	0.559	0.5335	0.526
1 µM, coculture fibroblast: HADF	0.866	0.823	0.785	0.737	0.729	0.732	0.712	0.717	0.706
1 µM, coculture fibroblast: HCFa	0.8613	0.803	0.7423	0.7007	0.6511	0.6411	0.6066	0.606	0.564
1 µM, coculture fibroblast: HCPF	0.919	0.83	0.773	0.722	0.6591	0.6372	0.6353	0.5913	0.5771
1 µM, coculture fibroblast: HHSteC	0.846	0.796	0.752	0.703	0.665	0.642	0.631	0.618	0.597
1 µM, coculture fibroblast: HMF	0.8589	0.767	0.707	0.6663	0.6014	0.569	0.547	0.52	0.514
1 µM, coculture fibroblast: HPFa	0.862	0.792	0.738	0.675	0.642	0.614	0.571	0.555	0.521
1 µM, coculture fibroblast: HUF	0.838	0.713	0.6995	0.5951	0.539	0.511	0.482	0.483	0.4834
1 µM, coculture fibroblast: Hs27A	0.853	0.82895	0.7791	0.7409	0.6946	0.6766	0.642	0.6459	0.605
1 µM, coculture fibroblast: Hs343T	0.8738	0.771	0.724	0.686	0.62	0.598	0.581	0.568	0.578
1 µM, coculture fibroblast: WS1	0.802	0.705	0.6905	0.581	0.522	0.512	0.49	0.492	0.499
